End groups of sequences in plain letters are not given here.
Test: general procedure: Fmoc solid-phase peptide synthesis; CTC resin; HATU/DIPEA (linear); HBTU/DIEA (cyclic)
Conditions: whole synthesis, scale 0.2 mmol

**Q.** With RDFQSFRKMWPFFAM as the sequence, how does the isolated mass read?
**A.** 175 mg

**Q.** What about the isolated yield of the same sequence?
**A.** 3.1%
